Reference: publication PMC8118649

Columns and labels:
Assay in all cases: co-IP; HEK293T cells co-transfected for 48 h with Myc-tagged EGFR (full-length or truncated) and Flag-tagged ZNRF1 (full-length or truncated); immunoprecipitation and immunoblotting with the indicated antibodies
[1] = target: Myc-tagged EGFR C-terminal truncated form
[2] = target: Myc-tagged EGFR tyrosine kinase domain (TKD) truncated form
[3] = target: Myc-tagged EGFR N-terminal truncated form
[4] = target: Myc-tagged EGFR TKD plus C-terminal truncated form

- binding [1]: no binding
- binding [2]: binds
- binding [3]: no binding
- binding [4]: binds
B1: Flag-tagged full-length ZNRF1, expressed in HEK293T cells (enzyme, UniProt Q8ND25 1-227)
chain: MGGKQSTAARSRGPFPGVSTDDSAVPPPGGAPHFGHYRTGGGAMGLRSRSVSSVAGMGMDPSTAGGVPFGLYTPASRGTGDSERAPGGGGSASDSTYAHGNGYQETGGGHHRDGMLYLGSRASLADALPLHIAPRWFSSHSGFKCPICSKSVASDEMEMHFIMCLSKPRLSYNDDVLTKDAGECVICLEELLQGDTIARLPCLCIYHKSCIDSWFEVNRSCPEHPAD

These are yes or no findings as the source states them, for the method shown. In cells and extracts the contact can be indirect. For some of these results: A result given as binding can be weak or reduced; the word gives no strength. Sequences can lack the tags named with a protein.
